Test results reported in PMC2778132.
Substitutions are numbered along the chain they refer to. These are yes or no findings as the source states them, for the method shown. Binding seen in cells or lysates may run through a third protein. Some binding calls cover weakened binding; strength is not graded here. Tags and fused reporters may be left off the sequences shown.

Sequences of proteins named here, by UniProt entry; tags and fusion partners are left off. A change or cut given only in a name is not applied to a line headed by its entry.
UniProt P08514: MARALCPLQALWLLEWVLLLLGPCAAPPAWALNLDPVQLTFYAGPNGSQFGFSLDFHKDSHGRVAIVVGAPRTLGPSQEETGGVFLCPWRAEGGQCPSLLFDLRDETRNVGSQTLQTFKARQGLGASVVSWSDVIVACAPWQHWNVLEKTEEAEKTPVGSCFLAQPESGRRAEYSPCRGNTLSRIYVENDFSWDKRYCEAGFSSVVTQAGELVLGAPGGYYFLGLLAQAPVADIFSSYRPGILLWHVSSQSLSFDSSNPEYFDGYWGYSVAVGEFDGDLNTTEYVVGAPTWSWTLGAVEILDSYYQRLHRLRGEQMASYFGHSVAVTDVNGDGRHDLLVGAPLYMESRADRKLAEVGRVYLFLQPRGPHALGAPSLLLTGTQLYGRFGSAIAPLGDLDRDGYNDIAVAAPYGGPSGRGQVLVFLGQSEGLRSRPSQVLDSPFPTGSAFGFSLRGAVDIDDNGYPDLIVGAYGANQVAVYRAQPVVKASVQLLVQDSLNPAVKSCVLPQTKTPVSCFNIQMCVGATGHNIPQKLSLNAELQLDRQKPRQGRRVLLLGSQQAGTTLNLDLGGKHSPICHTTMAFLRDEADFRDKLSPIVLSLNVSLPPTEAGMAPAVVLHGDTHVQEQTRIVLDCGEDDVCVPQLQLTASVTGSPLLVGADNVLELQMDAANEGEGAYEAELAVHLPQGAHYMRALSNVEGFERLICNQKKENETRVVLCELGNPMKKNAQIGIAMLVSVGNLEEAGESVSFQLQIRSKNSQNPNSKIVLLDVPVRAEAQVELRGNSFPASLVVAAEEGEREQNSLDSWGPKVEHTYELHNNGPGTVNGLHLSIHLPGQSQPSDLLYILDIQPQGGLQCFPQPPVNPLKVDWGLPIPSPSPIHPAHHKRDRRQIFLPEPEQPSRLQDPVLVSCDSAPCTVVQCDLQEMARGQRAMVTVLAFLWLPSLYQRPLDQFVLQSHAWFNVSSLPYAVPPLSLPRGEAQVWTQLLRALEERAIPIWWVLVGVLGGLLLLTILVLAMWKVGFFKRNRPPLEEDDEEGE

Experiments:
Assay in all cases: pull-down; GST fusion proteins bound to beads incubated with activated platelets for 1 h at room temperature; after lysis beads washed, SDS-PAGE and western blotting; only the target purified
[1] = molecular target: T1, GST-Dab2 N-PTB (N-terminal region of Disabled-2 including its PTB domain, residues 1-241) (UniProt P98082)
T1 sequence: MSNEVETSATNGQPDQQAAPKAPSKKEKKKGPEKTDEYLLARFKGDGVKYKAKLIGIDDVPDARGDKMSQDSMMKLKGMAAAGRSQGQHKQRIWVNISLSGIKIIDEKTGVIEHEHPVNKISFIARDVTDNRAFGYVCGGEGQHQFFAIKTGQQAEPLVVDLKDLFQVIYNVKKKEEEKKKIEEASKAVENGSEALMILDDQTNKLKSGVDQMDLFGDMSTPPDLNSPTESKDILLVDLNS

[2] = molecular target: T2, GST-Dab2 N-PTB^4M (Lys25Ala, Lys49Ala, Lys51Ala, Lys53Ala) (UniProt P98082)
T2 sequence: T1 sequence with K25A, K49A, K51A, K53A

[3] = molecular target: T3, GST-Dab2 N-PTB^5M (K25A/K49A/K51A/K53A/D66E) (UniProt P98082)
T3 sequence: T1 sequence with K25A, K49A, K51A, K53A, D66E

[4] = molecular target: T4, GST-Dab2 N-PTB^D66E (Asp66Glu) (UniProt P98082)
T4 sequence: T1 sequence with D66E

endogenous αIIbβ3 integrin receptor of activated platelets (from UniProt P08514 32-1039; P05106 27-788)
binding [1]: binds
binding [2]: binds
binding [3]: no binding
binding [4]: no binding
